Among the data in PMC5996148 are binding signal values, retold here.

By UniProt entry, the sequences of proteins in these tests, tags left out. Where a name states a change or a piece, a line headed by the entry shows the natural chain unless it says otherwise.
UniProt Q06330: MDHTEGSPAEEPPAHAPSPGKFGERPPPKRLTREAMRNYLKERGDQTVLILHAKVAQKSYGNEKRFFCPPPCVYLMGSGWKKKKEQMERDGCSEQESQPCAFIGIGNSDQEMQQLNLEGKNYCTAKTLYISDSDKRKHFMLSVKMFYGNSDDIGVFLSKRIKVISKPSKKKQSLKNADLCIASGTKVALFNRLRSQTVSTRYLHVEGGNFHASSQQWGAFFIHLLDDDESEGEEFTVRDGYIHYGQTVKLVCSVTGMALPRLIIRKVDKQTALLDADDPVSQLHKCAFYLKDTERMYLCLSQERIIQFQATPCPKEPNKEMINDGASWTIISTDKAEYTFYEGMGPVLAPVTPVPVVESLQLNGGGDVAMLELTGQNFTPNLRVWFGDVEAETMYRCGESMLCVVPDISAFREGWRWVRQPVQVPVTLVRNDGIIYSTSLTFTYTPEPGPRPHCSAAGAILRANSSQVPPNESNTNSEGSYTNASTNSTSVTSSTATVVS

What all share (test): protein microarray (ProtoArray v5.0), streptavidin-Alexa Fluor 647
Common to all, as to settings: 3'-biotin; 20 mM Tris (pH 7.5), 5 mM MgCl2, 100 mM KCl, 0.1% Tween-20, A/T-rich and random oligonucleotide blockers; temperature not stated; high values mean tight binding

The target of one assay is RBPJ (UniProt Q06330).
In another assay the test system is RCP9 (human).
A further assay has as its system RCSD1 (human).
The test system of a further assay is RDHE2 (human).
The next assay has as its target T1, REEP2 (UniProt Q9BRK0).
T1 sequence: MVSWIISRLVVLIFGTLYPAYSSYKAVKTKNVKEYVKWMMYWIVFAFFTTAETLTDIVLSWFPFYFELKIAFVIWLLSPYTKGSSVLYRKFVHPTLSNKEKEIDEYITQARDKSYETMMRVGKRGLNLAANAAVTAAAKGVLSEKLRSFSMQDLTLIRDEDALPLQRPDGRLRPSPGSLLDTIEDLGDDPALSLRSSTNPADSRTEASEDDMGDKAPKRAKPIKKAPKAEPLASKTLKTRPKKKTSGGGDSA

The next assay has as its system RFC5 (human).
A further assay relates to RFPL3 (human).
For another assay, the system named is RGS10 (human).
In the next assay the test system is RHCG (human).
The subject of assay [1] is RING finger protein 122 (human).
Another assay deals with T2, RIT2 (UniProt Q99578).
T2 sequence: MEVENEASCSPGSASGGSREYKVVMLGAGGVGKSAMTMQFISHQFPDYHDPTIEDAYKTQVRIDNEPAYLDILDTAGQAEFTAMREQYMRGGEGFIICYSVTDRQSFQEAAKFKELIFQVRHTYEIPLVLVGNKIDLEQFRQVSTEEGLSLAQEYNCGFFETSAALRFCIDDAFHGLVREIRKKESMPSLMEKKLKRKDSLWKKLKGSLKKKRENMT

The next assay has as its system RLBP1 (human).
Another assay deals with RLBP1L1 (human).
The test system of assay [2] is RNA polymerase II-associated protein 3 (human).
Assay [3] concerns RNA-binding protein 40 (human).
For assay [4], the system named is RNA-binding protein with multiple splicing (human).
A further assay relates to RNASE11 (human).
Another assay has as its system RNASE8 (human).
The test system of a further assay is RNF11 (human).
The next assay has as its system RNF141 (human).

This is one part of the list. For some assays here: Construct or isoform of the protein are uncertain.

As for “GGTGACAGGGGTATGGGGAGGGG [G4-2 biotinylated (Ct1)]”, the binding signal with RBPJ was 3.07 z-score; in the assay with RCP9 (human) it was -0.383 z-score; in the assay with RCSD1 (human), -0.391 z-score; in the assay with RDHE2 (human), -0.382 z-score; in the assay with REEP2 it was 3.2 z-score; in the assay on RFC5 (human), -0.363 z-score. In addition, the binding signal is -0.37 z-score in the assay on RFPL3 (human); -0.392 z-score in the assay on RGS10 (human); -0.387 z-score in the assay with RHCG (human); -0.388 z-score in assay [1]; 4.81 z-score in the assay with RIT2; -0.397 z-score with RLBP1 (human). The binding signal with RLBP1L1 (human) is -0.399 z-score; in assay [2], 6.32 z-score; in [3] it was 3.18 z-score; in assay [4], -0.377 z-score; with RNASE11 (human), -0.383 z-score; with RNASE8 (human), -0.384 z-score. Moreover, the binding signal in the assay on RNF11 (human) is -0.388 z-score; with RNF141 (human), -0.399 z-score.
